The values that follow come from US5334526.

Protein sequences, listed by entry. Tags and fused reporters are not part of them. Lines headed by an entry give the natural chain unless they say otherwise; changes in a name come on top.
UniProt P23657: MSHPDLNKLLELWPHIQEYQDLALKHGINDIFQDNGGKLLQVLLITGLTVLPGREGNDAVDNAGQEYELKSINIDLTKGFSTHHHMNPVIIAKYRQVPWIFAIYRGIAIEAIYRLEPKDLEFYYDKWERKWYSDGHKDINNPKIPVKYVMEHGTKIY

Holding throughout (experiment): enzyme reaction in vitro
The test system of data set [1] is AluI restriction endonuclease. The settings on record: REact 1, 37 C, purified native protein, only the motif is given.
Data set [2] concerns the target PvuII restriction endonuclease (UniProt P23657). The settings on record: methylated in vivo by AluI methylase at AGCT; resistant to PvuII digestion; REact 6, 37 C; purified native protein; only the motif is given.
Data set [3] deals with AluI restriction endonuclease (Arthrobacter luteus (ATCC 21606)). The settings on record: very low activity; AluI-size bands of lambda DNA; REact 1, 1 mM dAMP, 5 ug/ml tRNA, 37 C; protein in a lysate after overexpression; only the motif is given.

The exact form of at least one protein or probe is not confirmed. For some of these results: No signal at the amounts used counts as a negative.

Regarding “AGCT (double strand) [AluI-methylase-modified plasmid DNA (pACYCAluMI)]”, the “activity on this sequence” value in data set [1] (methylated in vivo by AluI methylase at AGCT, pACYCAluMI resistant to AluI digestion (clone #40 only partially protected)) is “not active”; in data set [2], “not active”.

Take “AGCT (double strand) [lambda DNA (AluI sites AGCT)]”: in data set [3], the “activity on this sequence” value is “active”.

With “AGCT (double strand) [plasmid DNA of clones (AluI sites)]”, the “activity on this sequence” value in data set [1] (all 24 AluI-enriched clones cleaved, 30 min) is recorded as “active”.
